The experiment in a line: qHTS Assay for Lipid Storage Modulators in Drosophila S3 Cells.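 For cell number change: cells counted by Cell Tracker Red CMTPX staining in the red channel.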 The note with it: BODIPY lipid droplet fluorescence, 18-24 h; for cell number change: measured here: cell count max response, cells fed with added oleic acid. The gist of the method:
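Laser-scanning cytometry quantifies lipid droplet accumulation (500–530 nm total intensity; droplet/cell object ratio) in oleic acid-fed (400 uM added) Drosophila S3 cells treated with a concentration series. 20 uM Triacsin C defined 100% inhibition.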
(In general: qHTS replaces the single test concentration by a dilution series.)

The mark [1] stands for this setting: measured here: lipid fluorescence (Fed channel) AC50, cells fed with added oleic acid.
Setting [2] is: measured here: cell number channel AC50, cells fed with added oleic acid.

Some of the results follow. Further columns of the screen follow, without active or inactive calls. The list favours compounds with an active or inconclusive main result. Words in brackets tell the shape of the fitted curve; partial curves, single points and poor fits give uncertain potencies.

As for `C(=N\N1CCN(Cc2ccccc2)CC1)/c1ccc(-c2ccccc2)cc1`, the cell number change is 9.81%.
The term AC50 denotes the midpoint of the concentration-response curve, whichever way the signal moves. Take `CCCCOc1ncnc2c1[nH]c1ccc(C)cc12`: the cell number change is -24.5%. Further, the concentration at half-maximal activity (AC50) under setting [1] was 5.8 µM [falling, full curve].
For `Cc1ccc(NS(=O)(=O)c2ccc(C(=O)N3CC(C)OC(C)C3)cc2)cc1` (stereo not drawn), the AC50 under setting [1] is 1.46 µM [falling, partial curve].
Consider `FC(F)(F)c1ccc(/C=N/N2CCN(Cc3ccccc3)CC2)cc1`, for which the cell number change was -18.2%.
For `NC(=S)Nc1cccc(-c2n[nH]c(=S)o2)c1`, the cell number change came to 5.96%. In addition, under setting [1], the half-maximal activity concentration (AC50) is 29.1 µM [rising, single point].
On to `CCOC(=O)CNC(=S)N(Cc1ccc(C)cc1)Cc1ccc(C)o1`, for which the cell number change was -52.2%. Under setting [2], the AC50 was 14.6 µM [falling, partial curve]. The half-maximal activity concentration (AC50) under setting [1] is 3.66 µM [falling, partial curve].
On to `O=C(Cn1cc2c(n1)CCCCC2)NCCCN1CCOCC1`, for which the cell number change was -58.8%. In addition, the half-maximal activity concentration (AC50) under setting [2] is 29.1 µM [falling, partial curve, poor fit]. Further, the AC50 under setting [1] was 14.6 µM [falling, partial curve].
Consider `Cc1nc(/N=C(\N)NC(=O)NC2CCCCC2)nc2ccccc12`, for which the cell number change was -36.8%. Besides, under setting [2], the AC50 is 14.6 µM [falling, single point]. For the same molecule, the AC50 under setting [1] was 16.4 µM [falling, partial curve, poor fit].
Take `COC(=O)C1=C(C)NC(c2c(O)ccc3ccccc23)C(C(=O)OC)=C1C` (stereo not drawn): the cell number change is 9.17%. In addition, the AC50 under setting [1] was 9.2 µM [rising, partial curve].
As to `COc1ccc(C)cc1N(CC(=O)N/N=C/c1ccccc1C(=O)O)S(=O)(=O)c1ccccc1`, the AC50 under setting [1] was 0.13 µM [rising, full curve, poor fit].
For the molecule `CC1=CC(C)(C)N2C(=O)C3(NCCc4c3[nH]c3ccccc43)c3cc(C)cc1c32` (stereo not drawn), the cell number change is -5.38%. Besides, under setting [1], the AC50 was 2.31 µM [falling, partial curve, poor fit].
Take `Cc1cc(-c2ccc([N+](=O)[O-])cc2)nc2ccccc12`: the cell number change was determined as 22.8%. For the same molecule, the concentration at half-maximal activity (AC50) under setting [1] is 20.6 µM [rising, partial curve].
For the molecule `c1ccc(-c2nc(-c3ccncc3)no2)cc1`, the cell number change was -7.78%. Moreover, the half-maximal activity concentration (AC50) under setting [1] was 11.6 µM [falling, partial curve].
For `Cc1nnc(SCc2nc3ccccc3nc2C)s1`, the cell number change was determined as 33.5%. Under setting [2], the half-maximal activity concentration (AC50) is 0.82 µM [rising, full curve, poor fit].
Turning to `N#CCC(=O)Nc1ccc(C(=O)NCCc2c[nH]c3ccccc23)cc1`, the cell number change was -6.41%.
In the case of `O=C(CSc1ncnc2c1oc1ccccc12)N1CCCc2ccccc21`, the half-maximal activity concentration (AC50) under setting [1] is 3.66 µM [rising, partial curve].
Take `COCCN(C(=O)COC(=O)c1c(-c2ccccc2)noc1C)c1c(N)n(Cc2ccccc2)c(=O)[nH]c1=O`: the cell number change is -6.52%.
Consider `NS(=O)(=O)c1ccc(N=Cc2ccc(Br)s2)cc1`, for which the cell number change was -6.27%. Further, under setting [1], the AC50 was 6.51 µM [falling, partial curve].
In the case of `CCOC(=O)c1sc2nc(CC(=O)OC)nc(NCCN(CC)CC)c2c1C`, the cell number change is 19%.
With `O=C(Nc1ccccc1)Nc1ccc2nnsc2c1`, the cell number change was -68.8%. In addition, the AC50 under setting [2] is 2.31 µM [falling, partial curve]. Besides, the half-maximal activity concentration (AC50) under setting [1] is 2.91 µM [falling, partial curve].
Consider `O=C(COC(=O)Cc1c[nH]c2ccccc12)NC1CCCCC1`, for which the cell number change was 54.5%. The AC50 under setting [2] was 29.1 µM [rising, single point].
For `C=CCN(c1ccccc1)S(=O)(=O)c1cccc(C(=O)NCC(c2cccs2)N2CCOCC2)c1` (stereo not drawn), the cell number change is -13.8%.
As for `CCc1noc(C)c1C(=O)NNC(=O)COc1ccccc1C`, the cell number change amounted to 36.1%. Moreover, the AC50 under setting [2] is 3.26 µM [rising, full curve]. Further, the AC50 under setting [1] was 2.31 µM [rising, full curve].
Turning to `COc1ccc(C2(CNC(=O)/C=C/c3ccco3)CCCC2)cc1OC`, the cell number change is -16.4%. The AC50 under setting [1] is 25.9 µM [falling, single point].
With `COc1cccc(CNC(=O)c2cccc(S(=O)(=O)N3CCN(C)CC3)c2)c1`, the cell number change amounted to 14.1%. Also, under setting [1], the AC50 is 5.62 µM [rising, single point].
On to `COc1c2occc2c(OC)c2c(=O)cc(C(F)(F)F)oc12`, for which the concentration at half-maximal activity (AC50) under setting [2] was 1.3 µM [rising, full curve] and the concentration at half-maximal activity (AC50) under setting [1] is 0.58 µM [rising, single point].
Regarding `Cc1cccc(-n2cnc(C(=O)NNC(=S)Nc3ccccc3)c2)n1`, the cell number change is -2.73%. Under setting [2], the AC50 is 0.731 µM [rising, single point].
`Cc1nc(CSc2nnc(C)s2)cs1`: the cell number change was 0.987%. In addition, under setting [1], the AC50 was 1.46 µM [falling, full curve, poor fit].
On to `CC(C)[C@H](NC(=O)Nc1cccc(C(F)(F)F)c1)C(=O)O`, for which the cell number change was determined as 0.651%. Moreover, under setting [1], the AC50 was 0.82 µM [falling, full curve, poor fit].
For `CCN(CC)C(=O)c1ccc(NS(=O)(=O)c2ccc3[nH]c(=O)[nH]c3c2)cc1`, the cell number change came to 0.54%. In addition, the AC50 under setting [1] was 29.1 µM [falling, single point].
On to `O=C(CSc1nnc(CNC(=O)c2c(F)cccc2F)o1)NCc1ccccc1Cl`, for which the cell number change was -74.3%. The AC50 under setting [2] is 11.2 µM [falling, partial curve]. In addition, under setting [1], the AC50 is 3.55 µM [falling, partial curve].
As to `O=C(Nc1ccc(S(=O)(=O)Nc2ncccn2)cc1)C1CC(=O)N(c2ccc(Cl)cc2)C1` (stereo not drawn), the cell number change was -23.1%. Besides, the AC50 under setting [1] is 0.116 µM [rising, single point].
Take `COc1cccc(-n2c(SCC(=O)Nc3cc(C)on3)nc3ccccc3c2=O)c1`: the cell number change is -4.07%.
On to `O=S(=O)(c1ccccc1)N1CCN(c2ccccc2)CC1`, for which the cell number change was -9.34%.
Turning to `CCSc1nnc2nc(C)cc(C)n12`, the cell number change was -27.5%. The AC50 under setting [1] was 16.4 µM [falling, partial curve].
As to `O=C(O)c1ccc(Cl)c(S(=O)(=O)NC(Cc2ccccc2)C(=O)O)c1` (stereo not drawn), the cell number change is -19.2%. The half-maximal activity concentration (AC50) under setting [1] is 6.51 µM [falling, single point].
With `CC(C)c1nnc(NC(=O)CCCCCN2C(=O)C3C4C=CC(C4)C3C2=O)s1` (stereo not drawn), the cell number change came to 1.62%. In addition, under setting [1], the concentration at half-maximal activity (AC50) is 2.06 µM [falling, partial curve].
As to `Cc1ccc(N2C(=O)C3C4C=CC(C4)C3C2=O)cc1` (stereo not drawn), the cell number change was -4.46%. For the same molecule, under setting [1], the AC50 was 0.13 µM [falling, full curve, poor fit].
On to `CCN1C(=O)/C(=C2\SC(=S)N(CCCOC)C2=O)c2ccccc21`, for which the cell number change was found to be 21.5%. The AC50 under setting [1] was 29.1 µM [rising, partial curve, poor fit].
Take `CCc1nnc(NC(=O)c2ccc3c(c2)C(=O)N(C(C)(C)C)C3=O)s1`: the cell number change is -0.424%.
Take `CC1=C(C(=O)Nc2ccccc2)C(c2ccc(C(C)C)cc2)N2C(=O)CSC2=N1` (stereo not drawn): the cell number change is -27.5%. Also, under setting [1], the concentration at half-maximal activity (AC50) is 6.51 µM [rising, single point].
On to `CCC(=O)Nc1nn(CC(C)C)c2nc3ccc(C)cc3cc12`, for which the cell number change stood at 22.4%.
Still for that read-out and setting: the result for `O=C(CN1CCCCCC1)N/N=C/c1ccc(Cl)c(Cl)c1` reads -13.9%.
As to `Cc1c(Cl)cccc1NC(=O)NC1CCCCC1`, the cell number change came to 16.9%. In addition, under setting [2], the AC50 is 0.231 µM [falling, full curve, poor fit]. Also, the AC50 under setting [1] was 4.11 µM [rising, full curve].
With `CCOc1ccccc1C(=O)N(Cc1sccc1C)C1CCS(=O)(=O)C1` (stereo not drawn), the cell number change was -46.9%. Besides, the AC50 under setting [2] was 12.6 µM [falling, partial curve]. For the same molecule, the concentration at half-maximal activity (AC50) under setting [1] was 20 µM [falling, partial curve].
Regarding `Cc1c(C(=O)NCc2ccco2)oc2c(Cl)cccc12`, the cell number change was -15.2%. Also, the AC50 under setting [1] was 0.58 µM [rising, single point].
For `CCCn1c(NCc2cccc(OC)c2OC)nc2ccccc21`, the cell number change amounted to 10.5%. The AC50 under setting [2] was 2.06 µM [rising, single point].
With `COc1cc(S(=O)(=O)N(C)C2CCCCC2)c(C)cc1C`, under setting [1], the AC50 is 0.366 µM [falling, full curve].
As for `O=C(CNCc1ccco1)Nc1cc(S(=O)(=O)N2CCOCC2)ccc1N1CCCC1`, the cell number change came out at 21%. Under setting [1], the half-maximal activity concentration (AC50) was 0.517 µM [rising, full curve, poor fit].
For `O=C1CCCC2=C1C(Cc1ccccc1)C1=C(CCCC1=O)O2`, the cell number change was -73.6%. Moreover, the concentration at half-maximal activity (AC50) under setting [2] was 10.3 µM [falling, partial curve]. Besides, the AC50 under setting [1] was 4.11 µM [falling, full curve, poor fit].
Take `O=C(Nn1cnnc1)c1ccccc1CCc1ccccc1`: the cell number change turned out to be 7.56%. The concentration at half-maximal activity (AC50) under setting [1] is 3.26 µM [rising, single point].
Consider `O=C(COC(=O)/C=C/c1ccc(Cl)cc1)NC1CCCCCC1`, for which the cell number change worked out at 25%. The concentration at half-maximal activity (AC50) under setting [1] is 0.00517 µM [falling, full curve, poor fit].
For `Nc1nc(SCC(=O)NC2CCCC2)[nH]c(=O)c1-c1ccccc1`, the cell number change is -71.3%. Further, under setting [2], the half-maximal activity concentration (AC50) is 16.4 µM [falling, single point].
Turning to `COc1ccc(/C=C/C(=O)O)cc1S(=O)(=O)N1CCCc2ccccc21`, the cell number change was -2.88%. The concentration at half-maximal activity (AC50) under setting [1] was 0.13 µM [falling, full curve].
On to `COc1cc(OC)c2c(-c3ccccc3)cc(=O)oc2c1C(CC(=O)N1CCN(c2ccccc2)CC1)c1ccc2c(c1)OCO2` (stereo not drawn), for which the cell number change turned out to be 16.9%. Also, under setting [1], the half-maximal activity concentration (AC50) was 0.58 µM [rising, full curve, poor fit].
As for `Cc1cc(OCc2nc(-c3cccs3)no2)cc(C)c1Cl`, the cell number change was 44.1%. Besides, the half-maximal activity concentration (AC50) under setting [2] was 2.31 µM [rising, full curve]. For the same molecule, the AC50 under setting [1] is 2.59 µM [rising, full curve].
For `C/C(=N\n1cnnc1)c1ccc(C#N)cc1`, the cell number change is -34.9%. In addition, the AC50 under setting [2] was 0.92 µM [falling, full curve]. Further, under setting [1], the AC50 is 1.03 µM [falling, full curve].
As to `CCCCn1c(N)c(N(CCC(C)C)C(=O)C2CC(=O)N(c3ccc(OC)cc3OC)C2)c(=O)[nH]c1=O` (stereo not drawn), the cell number change was -9.5%.
Same read-out and setting: the result for `O=C(Nc1ccccc1Cl)c1ccc([N+](=O)[O-])o1` reads -29.1%.
With `O=C(N/N=C/c1ccc(Br)o1)c1cccnc1`, the cell number change was determined as 37.7%. Besides, the half-maximal activity concentration (AC50) under setting [2] is 29.1 µM [rising, single point]. The AC50 under setting [1] was 11.6 µM [rising, partial curve, poor fit].
`CCCn1cc(NC(=O)C2CC(c3cccc(Br)c3)=NO2)cn1` (stereo not drawn): the cell number change was -0.877%. Also, under setting [1], the half-maximal activity concentration (AC50) was 29.1 µM [falling, single point].
Take `CCOC(=O)C1CCN(C/C=C/c2ccccc2)CC1`: the cell number change came to 3.04%.

The values above are taken from PubChem BioAssay AID2685 (National Center for Advancing Translational Sciences (NCATS), 2010).
